Experiment [1] addresses T1, CLCA2-Flag (human Chloride Channel Accessory 2, Flag-tagged) (human) (UniProt Q9UQC9).
T1 sequence: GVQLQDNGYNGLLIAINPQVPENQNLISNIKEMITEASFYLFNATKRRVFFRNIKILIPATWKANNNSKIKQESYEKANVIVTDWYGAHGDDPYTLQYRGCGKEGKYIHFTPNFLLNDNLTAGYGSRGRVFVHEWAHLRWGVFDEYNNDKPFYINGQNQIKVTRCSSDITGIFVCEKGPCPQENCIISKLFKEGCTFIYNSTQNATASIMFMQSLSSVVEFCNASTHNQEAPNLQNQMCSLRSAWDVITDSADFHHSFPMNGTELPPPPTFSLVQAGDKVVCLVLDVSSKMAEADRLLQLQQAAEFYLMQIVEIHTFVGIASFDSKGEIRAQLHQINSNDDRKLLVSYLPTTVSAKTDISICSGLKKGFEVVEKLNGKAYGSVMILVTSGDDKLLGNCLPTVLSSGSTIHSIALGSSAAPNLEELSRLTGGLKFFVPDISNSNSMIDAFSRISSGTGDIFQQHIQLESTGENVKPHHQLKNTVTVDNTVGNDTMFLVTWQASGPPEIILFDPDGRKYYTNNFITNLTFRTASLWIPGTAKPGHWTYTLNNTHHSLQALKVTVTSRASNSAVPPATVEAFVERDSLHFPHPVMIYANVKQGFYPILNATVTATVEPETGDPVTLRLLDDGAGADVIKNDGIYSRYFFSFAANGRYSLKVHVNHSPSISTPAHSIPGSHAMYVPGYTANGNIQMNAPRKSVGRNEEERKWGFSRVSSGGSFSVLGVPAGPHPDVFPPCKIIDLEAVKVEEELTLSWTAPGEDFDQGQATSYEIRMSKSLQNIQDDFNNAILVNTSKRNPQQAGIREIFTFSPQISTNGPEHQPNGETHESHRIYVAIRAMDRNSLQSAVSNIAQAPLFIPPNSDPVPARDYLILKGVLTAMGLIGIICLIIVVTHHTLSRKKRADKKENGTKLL
Nature of the experiment: co-IP; HEK293 cells transduced with CLCA2-flag or vector; cleared NP40 lysates (25mM Tris pH 7.6, 150mM NaCl, 0.5% NP-40); protein A/G beads washed four times; immunoblot, bands quantified by fluorimetric scans (Licor Odyssey); repeated on surface-biotinylated cells (Fig 5A).

By UniProt entry, the sequences of proteins in these tests, tags left out. Residues count along the entry.
UniProt Q13586, residues 23-685: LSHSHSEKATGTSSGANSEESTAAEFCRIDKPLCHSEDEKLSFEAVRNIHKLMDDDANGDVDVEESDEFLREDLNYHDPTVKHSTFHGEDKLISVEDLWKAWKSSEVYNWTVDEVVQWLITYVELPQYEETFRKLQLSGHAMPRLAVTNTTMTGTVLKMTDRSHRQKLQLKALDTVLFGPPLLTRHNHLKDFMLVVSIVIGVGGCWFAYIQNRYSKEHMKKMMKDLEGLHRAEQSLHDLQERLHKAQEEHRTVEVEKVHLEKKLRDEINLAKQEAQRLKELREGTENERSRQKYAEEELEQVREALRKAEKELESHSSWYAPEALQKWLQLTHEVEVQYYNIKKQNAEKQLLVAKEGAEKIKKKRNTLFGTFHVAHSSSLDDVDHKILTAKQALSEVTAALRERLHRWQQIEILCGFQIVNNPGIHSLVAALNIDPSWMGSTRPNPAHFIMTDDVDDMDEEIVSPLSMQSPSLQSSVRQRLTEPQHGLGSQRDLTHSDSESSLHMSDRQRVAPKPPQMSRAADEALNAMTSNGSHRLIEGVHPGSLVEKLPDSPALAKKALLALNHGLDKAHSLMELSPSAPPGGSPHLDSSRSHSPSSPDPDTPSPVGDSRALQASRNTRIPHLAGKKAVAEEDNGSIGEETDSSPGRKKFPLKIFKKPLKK

Experiment [2] deals with T2, CLCA2, endogenous in MCF10A (human (endogenous in MCF10A)) (UniProt Q9UQC9).
T2 sequence: T1 sequence
Nature of the experiment: co-IP; MCF10A cells grown to superconfluency and treated with CPA to activate STIM-1; endogenous proteins; vector or shRNA targeting CLCA2.

Experiment [3] concerns the target T3, CLCA2, transiently over-expressed in HEK293T (human) (UniProt Q9UQC9).
T3 sequence: T1 sequence
The experiment is described as follows: co-IP; HEK293T cells with transient over-expression of CLCA2 and TMEM16A in different concentration ratios; immunoprecipitated and detected with antibodies specific for either protein.

Experiment [4] deals with T4, CLCA2, stably expressed in HEK293 (cross-linking experiment) (human) (UniProt Q9UQC9).
T4 sequence: T1 sequence
The experiment is described as follows: cross-linking + co-IP; HEK293 stably expressing CLCA2 or vector, transfected with TMEM16A, treated 48h later with DSS (25 min, room temperature), with or without 1 micromolar ionomycin 5min before the cross-linker; immunoprecipitation and immunoblot. For orientation: A western blot detects proteins with antibodies after separation by electrophoresis.

For experiment [5], the target named is STIM-1 (Stromal Interaction Molecule 1) (human (endogenous in HEK293)) (UniProt Q13586). The experiment is described as follows: co-IP; HEK293 cells transduced with CLCA2-flag or vector; cleared NP40 lysates (25mM Tris pH 7.6, 150mM NaCl, 0.5% NP-40); protein A/G beads washed four times; immunoblot, bands quantified by fluorimetric scans (Licor Odyssey); repeated on surface-biotinylated cells (Fig 5A).

Experiment [6] has as its target T5, Bestrophin 1 (UniProt O76090).
T5 sequence: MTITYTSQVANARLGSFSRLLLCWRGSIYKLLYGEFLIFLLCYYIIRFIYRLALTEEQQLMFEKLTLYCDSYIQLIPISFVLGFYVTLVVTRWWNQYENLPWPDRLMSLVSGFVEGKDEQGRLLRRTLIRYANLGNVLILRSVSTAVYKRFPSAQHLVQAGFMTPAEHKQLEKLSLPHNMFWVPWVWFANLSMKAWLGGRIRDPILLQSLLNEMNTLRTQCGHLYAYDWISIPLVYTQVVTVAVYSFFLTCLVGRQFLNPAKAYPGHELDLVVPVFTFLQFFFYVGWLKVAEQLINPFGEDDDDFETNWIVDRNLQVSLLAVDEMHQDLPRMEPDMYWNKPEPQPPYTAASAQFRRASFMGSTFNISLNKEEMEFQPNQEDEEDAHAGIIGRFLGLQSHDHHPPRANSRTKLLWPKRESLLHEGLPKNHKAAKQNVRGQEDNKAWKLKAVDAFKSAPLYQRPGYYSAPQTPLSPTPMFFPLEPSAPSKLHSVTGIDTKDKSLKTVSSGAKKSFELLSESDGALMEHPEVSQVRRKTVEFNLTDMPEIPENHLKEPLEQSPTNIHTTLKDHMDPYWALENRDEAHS
The description is as above.

Experiment [7] has as its target STIM-1, endogenous in MCF10A (human (endogenous in MCF10A)) (UniProt Q13586). Nature of the experiment: co-IP; MCF10A cells grown to superconfluency and treated with CPA to activate STIM-1; endogenous proteins; vector or shRNA targeting CLCA2.

These are yes or no findings as the source states them, for the method shown. Binding seen in cells or lysates may run through a third protein. Some binding calls cover weakened binding; strength is not graded here. For some assays here: Tags and fused reporters may be left off the sequences shown.

Regarding “STIM-1 (Stromal Interaction Molecule 1) (from UniProt Q13586 23-685)”, the binding result in experiment [1] is “binds”.

Consider “STIM-1, endogenous in MCF10A (from UniProt Q13586 23-685)”, for which the binding result in experiment [2] is “binds”.

B1: TMEM16A (Anoctamin1), transiently over-expressed in HEK293T (protein, UniProt Q5XXA6 1-986)
chain: MRVNEKYSTLPAEDRSVHIINICAIEDIGYLPSEGTLLNSLSVDPDAECKYGLYFRDGRRKVDYILVYHHKRPSGNRTLVRRVQHSDTPSGARSVKQDHPLPGKGASLDAGSGEPPMDYHEDDKRFRREEYEGNLLEAGLELERDEDTKIHGVGFVKIHAPWNVLCREAEFLKLKMPTKKMYHINETRGLLKKINSVLQKITDPIQPKVAEHRPQTMKRLSYPFSREKQHLFDLSDKDSFFDSKTRSTIVYEILKRTTCTKAKYSMGITSLLANGVYAAAYPLHDGDYNGENVEFNDRKLLYEEWARYGVFYKYQPIDLVRKYFGEKIGLYFAWLGVYTQMLIPASIVGIIVFLYGCATMDENIPSMEMCDQRHNITMCPLCDKTCSYWKMSSACATARASHLFDNPATVFFSVFMALWAATFMEHWKRKQMRLNYRWDLTGFEEEEEAVKDHPRAEYEARVLEKSLKKESRNKEKRRHIPEESTNKWKQRVKTAMAGVKLTDKVKLTWRDRFPAYLTNLVSIIFMIAVTFAIVLGVIIYRISMAAALAMNSSPSVRSNIRVTVTATAVIINLVVIILLDEVYGCIARWLTKIEVPKTEKSFEERLIFKAFLLKFVNSYTPIFYVAFFKGRFVGRPGDYVYIFRSFRMEECAPGGCLMELCIQLSIIMLGKQLIQNNLFEIGIPKMKKLIRYLKLKQQSPPDHEECVKRKQRYEVDYNLEPFAGLTPEYMEMIIQFGFVTLFVASFPLAPLFALLNNIIEIRLDAKKFVTELRRPVAVRAKDIGIWYNILRGIGKLAVIINAFVISFTSDFIPRLVYLYMYSKNGTMHGFVNHTLSSFNVSDFQNGTAPNDPLDLGYEVQICRYKDYREPPWSENKYDISKDFWAVLAARLAFVIVFQNLVMFMSDFVDWVIPDIPKDISQQIHKEKVLMVELFMREEQDKQQLLETWMEKERQKDEPPCNHHNTKACPDSLGSPAPSHAYHGGVL
With B1, the binding entry in experiment [3] is on record as “no binding”.

B2: TMEM16A-Flag (Anoctamin1), transiently transfected in HEK293 (protein, UniProt Q5XXA6 1-986)
chain: B1 chain
As to B2, the binding entry in experiment [4] was “no binding”.

B3: Bestrophin 1 (protein, UniProt O76090 1-585)
chain: T5 sequence
For the molecule B3, the binding entry in experiment [1] was “no binding”.

B4: CLCA2-Flag (human Chloride Channel Accessory 2, Flag-tagged) (protein, UniProt Q9UQC9 32-943)
chain: T1 sequence
For the molecule B4, the results for the binding entry in experiment [5] and in experiment [6] were “binds” and “no binding”, respectively.

B5: CLCA2, endogenous in MCF10A (protein, UniProt Q9UQC9 32-943)
chain: T1 sequence
B5: in experiment [7], the binding result is “binds”.
